Measurements taken from patent US7553105B1, “Method and compositions for treatment of subsurface contaminants” (Colorado School of Mines, priority 2005, dated 2009).
Values joined by “and” are separate entries in the source; they are usually repeats but may differ in a detail not shown here. Identical values can stand only once.

Assay: 2-D flow-through cell co-injection flush with 3.5 wt % DOWFAX 8390 and 4 wt % KMnO4
[1] = Transect 1, sampling port C, pre-flush 31
[2] = Transect 1, sampling port D, pre-flush 50
[3] = Transect 1, sampling port E, pre-flush 9
[4] = Transect 1, sampling port F, pre-flush <1
[5] = Transect 2, sampling port A, pre-flush 146
[6] = Transect 2, sampling port B, pre-flush 84
[7] = Transect 2, sampling port G, pre-flush 78
[8] = effluent composite, pre-flush 12

ClC(Cl)=C(Cl)Cl [PCE, tetrachloroethene]
PCE concentration in port B after permanganate/surfactant front entered source zone (FIG. 6, about 30 minutes after start of flush, increased from 213 mg/L): 1078 mg/L | PCE concentration in port F throughout the co-injection experiment (FIG. 7, absence of downward vertical migration): < 1 mg/L | PCE concentration in port E one hour after initiation of co-injection flush (FIG. 7, increased from 176 mg/L): 737 mg/L | PCE concentration in port E two hours later (FIG. 7, two hours after the 737 mg/L peak): 3 mg/L | PCE concentration, 8-Days Post Flush [1]: <1 mg/L | PCE concentration, During Flush (t = 5 hrs) [1]: 28 mg/L | PCE concentration, 8-Days Post Flush [2]: 66 mg/L | PCE concentration, During Flush (t = 5 hrs) [2]: 48 mg/L | PCE concentration, 8-Days Post Flush [3]: 33 mg/L | PCE concentration, During Flush (t = 5 hrs) [3]: 287 mg/L | PCE concentration, 8-Days Post Flush [4]: <1 mg/L | PCE concentration, During Flush (t = 5 hrs) [4]: <1 mg/L | PCE concentration, 8-Days Post Flush [5]: 137 mg/L | PCE concentration, During Flush (t = 5 hrs) [5]: 183 mg/L | PCE concentration, 8-Days Post Flush [6]: 118 mg/L | PCE concentration, During Flush (t = 5 hrs) [6]: 1296 mg/L and 824 mg/L | PCE concentration, 8-Days Post Flush [7]: 263 mg/L | PCE concentration, During Flush (t = 5 hrs) [7]: 824 mg/L and 1296 mg/L | PCE concentration, 8-Days Post Flush (Transect 2, sampling port H, pre-flush 12): 1 mg/L | Effluent PCE Concentration, 8 Days Post-Flush [8]: 37 mg/L | Effluent PCE Concentration, During Flush (t = 5 hrs) [8]: 6 mg/L | PCE mass removal (from effluent PCE concentrations over 10-hour (2 PV) co-injection): 23%
